Test system: HCT116
Details: 72 h
In short: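 Luminescence was read with CellTiter-Glo in HCT116 cells seeded at 250 per well in 1536-well plates. Signals were scaled between vehicle at 0% and positive control at -100%, then pattern-corrected. IC50 and maximal efficacy were obtained by fitting a four-parameter Hill equation.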

SMILES: CC(C)(C)c1ccc(O)cc1 [4-tert-Butylphenol]
- IC50 cell viability (ICRF193 0 nM): > 45.8 µM
- IC50 cell viability (ICRF193 200 nM): > 45.8 µM
